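Luminescence from an EWS-FLI1 target-promoter (NR0B1) reporter, set against a CMV-promoter reporter, two days after silencing single genes in TC32 Ewing sarcoma cells.
Each siRNA was applied at 20 nM.
A z-score of the log NR0B1-over-CMV signal, less the median of siRNAs with the same seed; more negative means a stronger specific loss of the NR0B1 reporter.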

The strongest results of the screen are mostly left out here.
Sequences are the guide (antisense) strand, without overhang.

| # | siRNA | gene | seed-corrected z-score |
|---|---|---|---|
| 1 | `UCACAUACUUCUCCAGUGC` | ALOX12B | 0.1062 |
| 2 | `UACAAGCUAAAGGCCUUUC` | ZNF573 | 0.2567 |
| 3 | `AAUCUGUCAACUUCACUGC` | ZBTB37 | -1.258 |
| 4 | `UUUCGAAUGUUCUCAAACU` | CDC26 | -0.8087 |
| 5 | `UGGUAGGUCAUCUUCUUGC` | SPI1 | 0.01495 |
| 6 | `ACUCGAUUGAUCUUGAUGC` | LNX1 | -0.3288 |
| 7 | `UUUCAUGACAGAAGCUUCC` | INSRR | 0.6649 |
| 8 | `UGCGAAGUCAGAUAGGGCU` | REPIN1 | 0.3264 |
| 9 | `UCCUUUGUAUCGGAUAUUC` | TMEM87A | 0.2372 |
| 10 | `UAGGAAAUAACGAUGAGGA` | OR10S1 | 0.1332 |
| 11 | `AUCGUAGUAAUACUUCUCC` | MYCBP2 | -0.07087 |
| 12 | `UUCCCAGAUAGAUCAAGGG` | LRRC32 | -0.652 |
| 13 | `UACUCCAUGAGGAAGGCGU` | DEXI | 1.045 |
| 14 | `UUAGCUACCAGGUCCUCUA` | C14orf119 | -0.3691 |
| 15 | `UUCGCAUAAAACUUGCUGG` | KPNB1 | 0.4212 |
| 16 | `UUGUUGGACAGGUCAAGGC` | TLR2 | -0.0378 |
| 17 | `UUCUUAUGGACUGUCGGCU` | EPS8L2 | -0.641 |
| 18 | `UCUGUAGGAAGAGCACAGC` | PCIF1 | -0.05373 |
| 19 | `UUGGUUGUUUCACUAGUGG` | PCLO | 0.006562 |
| 20 | `UUCCUUAAGACUUUCACAC` | ZNF962P | -0.3273 |
| 21 | `ACAGAUACCACCUUGUUGA` | OR6Q1 | 0.4722 |
| 22 | `UAAUCGAAUUCAUCCAGGC` | UBE4A | -0.4348 |
| 23 | `UGUCCAUCUAGUAGGUUCC` | IVNS1ABP | 1.912 |
| 24 | `UCUGGAGUCGCAGUUCUCG` | NOTUM | -0.7313 |
| 25 | `UAAGGGCAUACUUAACAGC` | AKR1A1 | -0.2867 |
| 26 | `UUUAAAAACUUGUUGUCUG` | LYRM7 | 0.6296 |
| 27 | `UGACCUAUUGGGUUGCUGC` | RGL4 | -0.01344 |
| 28 | `UUUUGUCGGAGGUAAUUCC` | DENND2C | -0.3032 |
| 29 | `UGAAUUCCAAUUGAACAGG` | LOC644135 | 1.22 |
| 30 | `UGUACUGCAAGGCAUGACC` | ZNF487 | 0.1932 |
| 31 | `UCAACACUUUCAAUCGUCG` | SERPINB12 | -0.2864 |
| 32 | `UCAGCACCUCCUGUAAAGC` | RPS12P9 | 1.01 |
| 33 | `AACUAUAUCAGGAAUUCGC` | AGPS | 0.1067 |
| 34 | `CAUGCUAAGAGCUAAUUCC` | PDE4DIP | 0.8984 |
| 35 | `UCAGGUGGAAGAGACAAGG` | PHC1 | -0.287 |
| 36 | `AAUUCUCUAGAGUUCUUCC` | LINC01114 | -0.5133 |
| 37 | `UGCACGUCCAGCAUGAUGU` | ASIC3 | -0.07638 |
| 38 | `UGACACAUCCUGAAUCUCC` | LCN1P2 | 0.9019 |
| 39 | `UAGCAGGUCAGGAAUAAGA` | C5orf46 | -0.2855 |
| 40 | `UCAAGGGUAGGCCUUCUGG` | FAM109A | -0.2287 |
| 41 | `UUCAUAGUAGAUGGAAUCC` | KDELC1 | -0.139 |
| 42 | `UUGUGAGUCACAAAACCUC` | CLEC2D | -0.6873 |
| 43 | `AGAGAAACCAGAAAGGCAG` | UPK3B | -0.281 |
| 44 | `AAUCUCUAAAGAUAAGACG` | PPT1 | -0.581 |
| 45 | `UAGCGAUUCCUGUACAUCU` | AKR7A3 | -0.05019 |
| 46 | `UUGGGAGUGAAUGCAGUUG` | PLXNB1 | -1.214 |
| 47 | `AAACUGACUACGGAGAUGG` | OR4X1 | -1.944 |
| 48 | `AAUCAGCUUAUUAAGUUUC` | DNAJC3 | 0.6717 |
| 49 | `UUAUCAUUGUCGUAAGAGC` | CCDC62 | 0.6971 |
| 50 | `AGUACUCACAUUCUCAUCG` | ASIC2 | -0.3666 |
| 51 | `UUCUGGUCACAUAUUGUCC` | CD163L1 | -0.0627 |
| 52 | `UUCUCUCCAGGUUGCACUG` | NRBP2 | 0.08096 |
| 53 | `AUCGUUAUCAGUAUAGAGG` | GABRB3 | -0.04517 |
| 54 | `UUCUCGUAGAUGUAGGAGC` | CRIP2 | -0.3616 |
| 55 | `AAGCCUAUAGGGAAGUUGC` | TNRC6A | -0.05477 |
| 56 | `AAGAUGGCGAUCAGCGUGC` | ONECUT3 | -0.1158 |
| 57 | `AAGUUUUUGAUGACAUGCG` | ZNF320 | 0.5605 |
| 58 | `AAUGAUGUAGGUAUAGGAC` | KIAA1324 | -0.5011 |
| 59 | `GACGGUUCGCUAUCUGGAU` | CT47B1 | 0.4156 |
| 60 | `UACGGGAACCUCUUGAUGG` | ABCA3 | -0.2132 |
| 61 | `ACAGUAUGCACAUUCAGGG` | LOC392529 | -0.9144 |
| 62 | `AAAGUGAGAGAGUUGGGUC` | RTBDN | 0.5993 |
| 63 | `UUGACUAUCGGCUCCAUCC` | PEBP4 | -0.7928 |
| 64 | `AACUGGAUUUGUGAUGUUG` | B3GALNT2 | -0.5474 |
| 65 | `UCUUCUUUAAUUCAUUACC` | CD8A | -0.2675 |
| 66 | `UGGAGGAUCAGAGUUGAGC` | DMRTC1 | -0.2483 |
| 67 | `UACGCAAUGGAGUAUUUGC` | CDCA2 | -0.07896 |
| 68 | `UGUCUAGAAGCAUCCAUGC` | AKAP9 | -1.21 |
| 69 | `UCUAGUUCUAUCUUGUCUU` | CINP | 0.1377 |
| 70 | `UUAAGUUCCGUAAUCUGCC` | POLR1E | -0.1446 |
| 71 | `AAGAGUGACCACCAUAUUU` | EEF1A1P33 | -0.3053 |
| 72 | `UCUCGCAUUAUAGACGGCC` | PLCL1 | -1.555 |
| 73 | `AAUGAUAACAACUUCUUGC` | OR10A5 | 0.7442 |

Once more, the final 5:

siRNA,gene,seed-corrected z-score
UCUAGUUCUAUCUUGUCUU,CINP,0.1377
UUAAGUUCCGUAAUCUGCC,POLR1E,-0.1446
AAGAGUGACCACCAUAUUU,EEF1A1P33,-0.3053
UCUCGCAUUAUAGACGGCC,PLCL1,-1.555
AAUGAUAACAACUUCUUGC,OR10A5,0.7442

Source: PubChem BioAssay AID1159506 (NCATS, 2015).